Reference: the supplement of paper PMC10331698
± gives the standard deviation of the averaged measurements. Most values lie at the level of the controls, where differences are scatter.

Tests used:
Assay in all cases: level (log10 ratio to DMSO vehicle control); higher = higher biomarker level / cell amount than vehicle control
[1] = compound: OCC(F)(F)OC(F)(F)C(F)(F)OC(F)(F)CO [1H,1H,8H,8H-Perfluoro-3,6-dioxaoctane-1,8-diol] (in DMSO); conditions: 2200 nM
Description: (§1)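 BioMAP Diversity Plus panel of 12 human primary cell co-culture systems (3C, 4H, LPS, SAg, BT, BF4T, BE3C, CASM3C, HDF3CGF, KF3CT, MyoF, Mphg). Compounds were added 1 h before stimulation and left for 24 h (MyoF 48 h; BT 72 h for soluble read-outs or 6 d for IgG). Biomarkers were read by ELISA, cytotoxicity by SRB, PBMC viability and proliferation by Alamar Blue. Each well value was divided by the mean of 8 DMSO control wells on the same plate and log10 transformed; duplicate blinded samples were tested at 4 concentrations.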

[2] = compound: CNS(=O)(=O)C(F)(F)C(F)(F)C(F)(F)C(F)(F)C(F)(F)C(F)(F)C(F)(F)C(F)(F)F [N-Methylperfluorooctanesulfonamide] (in DMSO); conditions: 2200 nM
Description: as §1

[3] = compound: O=C(O)CCC(F)(F)C(F)(F)C(F)(F)F [3:3 Fluorotelomer carboxylic acid] (in DMSO); conditions: 2200 nM
Description: as §1

[4] = compound: OCC(F)(F)C(F)(F)C(F)(F)C(F)(F)C(F)(F)C(F)(F)CO [1H,1H,8H,8H-Perfluorooctane-1,8-diol] (in DMSO); conditions: 2200 nM
Description: as §1

[5] = compound: FC(F)(F)COC(OCC(F)(F)F)OCC(F)(F)F [tris(Trifluoroethoxy)methane] (in DMSO); conditions: 2200 nM
Description: as §1

[6] = compound: O=C(O)C(F)(OC(F)(F)C(F)(F)C(F)(F)F)C(F)(F)F [Ammonium perfluoro-2-methyl-3-oxahexanoate] (in Water)
Description: as §1

[7] = compound: FC(F)(F)C(F)(F)CNCC(F)(F)C(F)(F)F [Bis(1H,1H-perfluoropropyl)amine] (in DMSO); conditions: 2200 nM
Description: as §1

[8] = compound: O=C(O)C(F)(OC(F)(F)C(F)(OC(F)(F)C(F)(OC(F)(F)C(F)(F)C(F)(F)F)C(F)(F)F)C(F)(F)F)C(F)(F)F [Perfluoro-(2,5,8-trimethyl-3,6,9-trioxadodecanoic)acid] (in DMSO); conditions: 370 nM
Description: as §1

[9] = compound: C=C(C)C(=O)OCCC(F)(F)C(F)(F)C(F)(F)C(F)(F)C(F)(F)C(F)(F)F [6:2 Fluorotelomer methacrylate] (in DMSO); conditions: 2200 nM
Description: as §1

[10] = compound: FC(F)(F)C(F)(F)C(F)(F)C(F)(F)CCI [1H,1H,2H,2H-Perfluorohexyl iodide] (in DMSO); conditions: 2200 nM
Description: as §1

[11] = compound: OCCCC(F)(F)C(F)(F)C(F)(F)C(F)(F)C(F)(F)C(F)(F)C(F)(F)C(F)(F)F [3-(Perfluorooctyl)propanol] (in DMSO); conditions: 2200 nM
Description: as §1

[12] = compound: O=C(O)C(F)(F)C(F)(F)C(F)(F)OC(F)(C(F)(F)F)C(F)(F)F [Perfluoro-4-isopropoxybutanoic acid] (in DMSO); conditions: 2200 nM
Description: as §1

[13] = compound: O=C(O)C(F)(F)C(F)(F)C(F)(F)C(=O)O [Hexafluoroglutaric acid] (in DMSO)
Description: as §1

[14] = compound: O=C(O)C(F)(F)C(F)(F)C(F)(F)C(F)(F)C(F)(F)F [Perfluorohexanoic acid] (in DMSO)
Description: as §1

[15] = compound: O=S(=O)(O)C(F)(F)C(F)(F)C(F)(F)C(F)(F)F [Perfluorobutanesulfonic acid] (in DMSO)
Description: as §1

[16] = compound: OCC(F)(F)C(F)(F)C(F)(F)C(F)(F)C(F)(F)C(F)(F)F [6:1 Fluorotelomer alcohol] (in DMSO); conditions: 2200 nM
Description: as §1

[17] = compound: OCC(F)(F)C(F)(F)C(F)(F)C(F)F [1H,1H,5H-Perfluoropentanol] (in DMSO); conditions: 2200 nM
Description: as §1

| Test System | level (log10) [1] | level (log10) [2] | level (log10) [3] | level (log10) [4] | level (log10) [5] | level (log10) ([6]; 2200 nM) | level (log10) ([6]; 6700 nM) | level (log10) ([6]; 20000 nM) | level (log10) ([6]; 60000 nM) | level (log10) [7] | level (log10) [8] | level (log10) [9] | level (log10) [10] | level (log10) [11] | level (log10) [12] | level (log10) ([13]; 2200 nM) | level (log10) ([13]; 6700 nM) | level (log10) ([13]; 20000 nM) | level (log10) ([13]; 60000 nM) | level (log10) ([14]; 2200 nM) | level (log10) ([14]; 6700 nM) | level (log10) ([14]; 20000 nM) | level (log10) ([14]; 60000 nM) | level (log10) ([15]; 2200 nM) | level (log10) ([15]; 6700 nM) | level (log10) ([15]; 20000 nM) | level (log10) ([15]; 60000 nM) | level (log10) [16] | level (log10) [17] |
| --- | --- | --- | --- | --- | --- | --- | --- | --- | --- | --- | --- | --- | --- | --- | --- | --- | --- | --- | --- | --- | --- | --- | --- | --- | --- | --- | --- | --- | --- |
| SAg:CD69 | -0.0035 ± 0.013 | 0.001 ± 0.014 | 0.0115 ± 0.029 | 0.0135 ± 0.022 | 0.048 ± 0.016 | -0.003 ± 0.0099 | -0.046 ± 0.0071 | -0.0265 ± 0.019 | -0.0205 ± 0.005 | 0.004 ± 0.0057 | -0.0055 ± 0.0035 | 0.0015 ± 0.0035 | -0.0095 ± 0.0092 | -0.0195 ± 0.0064 | -0.0025 ± 0.016 | 0.0005 ± 0.0064 | -0.0125 ± 0.0064 | -0.016 ± 0.013 | 0.005 ± 0.0042 | -0.0155 ± 0.0021 | -0.0065 ± 0.00071 | -0.0115 ± 0.021 | -0.0125 ± 0.0092 | 0.0045 ± 0.025 | -0.008 ± 0.0028 | -0.013 ± 0.017 | -0.043 ± 0.037 | -0.013 ± 0.0014 | -0.0045 ± 0.015 |
| SAg:CXCL8/IL-8 | 0.0145 ± 0.039 | 0.0025 ± 0.032 | 0.0215 ± 0.064 | 0.015 ± 0.023 | 0.0145 ± 0.037 | 0.117 ± 0.083 | 0.103 ± 0.0085 | 0.099 ± 0.0085 | 0.167 ± 0.047 | 0.0285 ± 0.03 | -0.0155 ± 0.059 | 0.0345 ± 0.076 | 0.0055 ± 0.0092 | 0.0695 ± 0.086 | 0 ± 0.04 | 0.017 ± 0.025 | -0.011 | -0.041 ± 0.042 | 0.0285 ± 0.077 | -0.008 ± 0.0057 | -0.049 ± 0.052 | -0.009 ± 0.038 | 0.0035 ± 0.084 | 0.009 ± 0.023 | -0.0025 ± 0.023 | -0.001 ± 0.014 | 0.049 ± 0.037 | 0.01 ± 0.11 | 0.008 ± 0.057 |
| SAg:CXCL9/MIG | -0.004 ± 0.0085 | 0.0115 ± 0.013 | 0.005 ± 0.013 | 0.0025 ± 0.005 | 0.006 ± 0.017 | 0.0125 ± 0.011 | -0.006 ± 0.0085 | 0.001 ± 0.014 | 0.001 ± 0.028 | -0.0015 ± 0.0092 | 0.0075 ± 0.019 | -0.002 ± 0.025 | 0.0055 ± 0.00071 | -0.0175 ± 0.011 | 0.0045 ± 0.0021 | -0.0025 ± 0.015 | -0.0015 ± 0.00071 | -0.012 ± 0.0042 | -0.0005 ± 0.005 | 0.0045 ± 0.0021 | -0.0005 ± 0.0064 | -0.001 ± 0.0085 | 0.0055 ± 0.005 | -0.0145 ± 0.0064 | -0.0105 ± 0.00071 | 0.002 ± 0.014 | -0.002 ± 0.02 | 0.0095 ± 0.012 | 0.008 ± 0.0014 |
| SAg:PBMC Cytotoxicity | -0.0135 ± 0.026 | -0.0255 ± 0.049 | -0.02 ± 0.024 | -0.0135 ± 0.012 | -0.0005 ± 0.0021 | -0.006 ± 0.023 | -0.011 ± 0.013 | -0.024 ± 0.013 | -0.0035 ± 0.0064 | 0.001 ± 0.018 | 0.019 ± 0.058 | 0.0245 ± 0.026 | 0.043 ± 0.035 | -0.0215 ± 0.011 | 0.0085 ± 0.026 | 0.004 ± 0.0071 | 0.0035 ± 0.0078 | 0.014 ± 0.0042 | -0.005 ± 0.058 | 0.004 ± 0.064 | -0.0155 ± 0.046 | 0.002 ± 0.0028 | 0.009 ± 0.073 | 0.004 ± 0.0028 | -0.029 ± 0.038 | -0.0315 ± 0.036 | 0.023 ± 0.024 | -0.002 ± 0.031 | 0.009 ± 0.023 |
| SAg:Proliferation | 0.0045 ± 0.015 | 0.033 ± 0.065 | 0.007 ± 0.047 | -0.0015 ± 0.011 | 0.0085 ± 0.029 | 0.021 ± 0.033 | -0.0005 ± 0.028 | -0.043 ± 0.028 | -0.0265 ± 0.049 | 0.011 ± 0.023 | -0.03 ± 0.089 | -0.0425 ± 0.093 | 0.01 ± 0.0057 | -0.0035 ± 0.019 | 0.006 ± 0.0057 | 0.051 ± 0.024 | -0.019 ± 0.0071 | -0.0445 ± 0.033 | -0.0275 ± 0.013 | 0.036 ± 0.011 | 0.0065 ± 0.011 | 0.003 ± 0.021 | 0.027 ± 0.0042 | -0.013 ± 0.059 | -0.0295 ± 0.11 | -0.0385 ± 0.023 | 0.039 ± 0.017 | 0.002 ± 0.03 | -0.022 ± 0.0099 |
| SAg:SRB | -0.0145 ± 0.0064 | -0.009 ± 0.02 | -0.0035 ± 0.0064 | 0.0115 ± 0.015 | -0.0075 ± 0.0078 | -0.0145 ± 0.005 | -0.019 ± 0.0042 | -0.01 ± 0.0014 | -0.0285 ± 0.0021 | 0.001 ± 0.0028 | 0.004 ± 0.014 | 0.0015 ± 0.016 | -0.0105 ± 0.005 | 0.006 ± 0.023 | -0.0105 ± 0.0078 | -0.0035 ± 0.0092 | -0.0055 ± 0.00071 | -0.0105 ± 0.016 | -0.0035 ± 0.016 | -0.0015 ± 0.016 | -0.0055 ± 0.0035 | -0.0135 ± 0.0035 | -0.001 ± 0.0028 | 0.0135 ± 0.018 | 0.0005 ± 0.0092 | -0.0085 ± 0.0092 | -0.0055 ± 0.013 | 0.004 ± 0.0042 | -0.006 ± 0.0042 |
| lMphg:CCL2/MCP-1 | 0.01 ± 0.05 | -0.002 ± 0.045 | 0.0175 ± 0.043 | 0.013 ± 0.044 | 0.0235 ± 0.037 | 0.034 ± 0.042 | 0.0165 ± 0.005 | 0.0125 ± 0.012 | 0.038 ± 0.027 | -0.003 ± 0.0085 | -0.0125 ± 0.0092 | -0.009 ± 0.0071 | -0.0195 ± 0.033 | 0.017 ± 0.04 | -0.001 ± 0.031 | -0.026 ± 0.024 | -0.046 ± 0.052 | -0.0305 ± 0.037 | -0.0235 ± 0.011 | -0.001 ± 0.0042 | -0.0065 ± 0.028 | -0.021 ± 0.0099 | -0.014 ± 0.041 | 0.006 ± 0.0028 | 0.0105 ± 0.0021 | 0.0105 ± 0.0078 | 0.0145 ± 0.025 | -0.0095 ± 0.012 | -0.023 ± 0.051 |
